From PubChem BioAssay AID624297 (National Center for Advancing Translational Sciences (NCATS), 2012)
The whole screen tested about 340,000 compounds, of which about 6,200 (1.8%) were called active. The inconclusive results got no clear call from the source; some entries with a clear call stand among them for comparison. The call rests on the fitted dose curve; in most records, active means well fitted activation curve with a large enough effect; inconclusive means small, poorly fitted or top-dose-only effect; inactive means no such curve, though single readings can be large or run the other way. A potency beside an inconclusive call is a rough fit, not a confirmed value.

assay: A quantitative high throughput screen for small molecules that induce DNA re-replication in SW480 colon adenocarcinoma cells.; further: nearly all actives have a fitted effect of over 55% in size; conditions: Hoechst DNA content imaging, 48 h; series mostly up to 46.1 µM
In short: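 First, 250 cells per well were seeded. Next, compound or vehicle (23 nL) was pinned in, plates sat 48 hr at 37 C. Finally Hoechst was added for 40 min before fluorescence scanning.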
Potency means the concentration at half of the fitted maximal effect.

Structure (SMILES)	Potency
Cc1nc(NCc2ccc3c(c2)OCO3)c2nnn(Cc3ccccc3)c2n1	inconclusive: 25.9 µM [activator, single point]
COc1ccc(-c2c(C)nn(Cc3ccccc3)c2N)cc1	inactive
Cc1ccc(C#N)c(SCC(=O)Nc2nccs2)n1	active: 16.4 µM
C=CCNC(=S)NNC(=O)c1cc(Cl)ccc1OC	inconclusive: 0.58 µM [activator, partial curve, poor fit]
CCc1ccc(NCc2cc3c(C)nn(-c4ccccc4)c3[nH]c2=O)cc1	inconclusive: 16.4 µM [activator, single point]
O=C(NNS(=O)(=O)c1ccccc1F)c1cc(-c2ccccc2)n[nH]1	inconclusive: 16.4 µM [activator, single point]
Cc1ccc(C(=O)NNC(=O)c2ccco2)cc1	inconclusive: 2.06 µM [activator, single point]
Cc1ccc(Nc2nc(CSc3nnnn3C)cs2)cc1	inactive
O=C(Nc1ccc2ccccc2c1)c1ccc(Cl)cc1	inactive
CCCc1nc2ccccc2n1CCOc1ccccc1	inactive
O=C(Nc1ccc2c(c1)OCO2)c1ccccc1	inactive
Cc1cccc(NC(=O)CN2CCN(C(=O)C3CCN(C(=O)/C=C/c4ccccc4)CC3)CC2)c1C	inconclusive: 4.11 µM [activator, full curve, poor fit]
CCCCOC(=O)c1ccc(NC(=O)c2ccoc2C)cc1	inactive
CC(CC(=O)Nc1ccc(Cl)c([N+](=O)[O-])c1)c1ccccc1 (stereo unspecified)	inconclusive: 35.5 µM [activator, single point]
O=C(NC(=S)Nc1ccccc1N1CCCCC1)c1cccs1	inconclusive: 29.1 µM [activator, single point]
CCCC1CCC(c2nc(-c3cccnc3)no2)CC1 (stereo unspecified)	inconclusive: 25.9 µM [activator, partial curve, poor fit]
COc1ccc(N(C(=O)C(C)C)S(=O)(=O)c2cccs2)cc1	inconclusive: 29.1 µM [activator, single point]
Cc1ccc(-c2nc(N/N=C/c3ccccc3[N+](=O)[O-])c3ccccc3n2)cc1	active: 7.31 µM
CCC(CC)C(=O)Nc1cccc(-c2ccc3nncn3n2)c1	inconclusive: 14.6 µM [activator, single point]
CCOC(=O)c1c(NC(=O)C2C3C=CC(CC3)C2C(=O)O)sc(C)c1C (stereo unspecified)	inconclusive: 29.1 µM [activator, single point]
COc1ccccc1C1SCCN1S(=O)(=O)c1cccc(C(F)(F)F)c1 (stereo unspecified)	inactive

Two entries drawn at random from the list so far, as already listed:
Structure (SMILES)	Potency
Cc1nc(NCc2ccc3c(c2)OCO3)c2nnn(Cc3ccccc3)c2n1	inconclusive: 25.9 µM [activator, single point]
Cc1ccc(Nc2nc(CSc3nnnn3C)cs2)cc1	inactive
